Test results from article PMC11443168.
No constants are given. Whether binding was seen depends on the method and setting. For some of these results: In cells and extracts the contact can be indirect. Some results given as binding are weak or reduced against the parent protein; the word gives no strength. Sequences can lack the tags named with a protein.

Experiments:
[1] = target: T1, TMX5/TXNDC15, V5-tagged (TMX5-V5 WT) (UniProt Q96J42); experiment: co-IP; V5-TMX5 or V5-TMX5 C220A immunoisolated with anti-V5 beads from HEK293 lysates (RIPA, 20 mM NEM); non-reducing and reducing SDS-PAGE; Western blot for endogenous PDI, ERp57, ERp44
T1 sequence: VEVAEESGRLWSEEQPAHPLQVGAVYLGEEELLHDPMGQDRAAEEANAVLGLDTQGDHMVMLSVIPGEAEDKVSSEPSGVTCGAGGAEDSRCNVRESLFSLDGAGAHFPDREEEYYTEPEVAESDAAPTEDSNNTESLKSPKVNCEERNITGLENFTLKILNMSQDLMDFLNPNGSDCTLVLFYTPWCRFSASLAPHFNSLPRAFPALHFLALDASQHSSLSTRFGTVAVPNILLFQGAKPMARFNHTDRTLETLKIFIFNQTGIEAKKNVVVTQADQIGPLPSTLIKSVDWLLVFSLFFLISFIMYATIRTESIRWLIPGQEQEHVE

TMX5_(C220A), V5-tagged [2] = target: T2, TMX5_(C220A), V5-tagged (UniProt Q96J42); experiment: as above
T2 sequence: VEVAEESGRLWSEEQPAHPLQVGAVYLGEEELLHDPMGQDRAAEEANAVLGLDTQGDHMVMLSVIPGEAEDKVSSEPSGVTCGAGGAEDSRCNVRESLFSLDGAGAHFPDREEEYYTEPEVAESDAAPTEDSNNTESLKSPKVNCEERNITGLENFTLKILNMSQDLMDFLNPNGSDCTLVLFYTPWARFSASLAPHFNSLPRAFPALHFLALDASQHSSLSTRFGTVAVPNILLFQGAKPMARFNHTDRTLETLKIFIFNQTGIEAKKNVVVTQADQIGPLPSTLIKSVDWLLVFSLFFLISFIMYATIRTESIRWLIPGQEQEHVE

[3] = target: T1, TMX5/TXNDC15, V5-tagged (TMX5-V5 WT); experiment: co-IP; HEK293 cells co-expressing V5-tagged TMX5 (or cysteine mutants) and HA-tagged ERp44 (or C29S); immunoisolation with anti-V5 antibodies (TMX5 as bait), non-reducing/reducing SDS-PAGE, Western blot with anti-HA
TMX5_(C114A), V5-tagged = target: T3, TMX5_(C114A), V5-tagged (UniProt Q96J42); experiment: as above
T3 sequence: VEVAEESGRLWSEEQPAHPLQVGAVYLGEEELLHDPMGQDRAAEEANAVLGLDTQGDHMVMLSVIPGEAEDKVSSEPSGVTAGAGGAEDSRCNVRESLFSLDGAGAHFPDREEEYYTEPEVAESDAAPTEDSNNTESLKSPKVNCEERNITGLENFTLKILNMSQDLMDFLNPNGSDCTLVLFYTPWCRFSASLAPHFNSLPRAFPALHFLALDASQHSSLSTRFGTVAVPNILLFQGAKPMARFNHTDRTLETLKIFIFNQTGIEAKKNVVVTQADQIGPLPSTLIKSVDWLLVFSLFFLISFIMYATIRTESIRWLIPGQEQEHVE

TMX5_(C124A), V5-tagged = target: T4, TMX5_(C124A), V5-tagged (UniProt Q96J42); experiment: as above
T4 sequence: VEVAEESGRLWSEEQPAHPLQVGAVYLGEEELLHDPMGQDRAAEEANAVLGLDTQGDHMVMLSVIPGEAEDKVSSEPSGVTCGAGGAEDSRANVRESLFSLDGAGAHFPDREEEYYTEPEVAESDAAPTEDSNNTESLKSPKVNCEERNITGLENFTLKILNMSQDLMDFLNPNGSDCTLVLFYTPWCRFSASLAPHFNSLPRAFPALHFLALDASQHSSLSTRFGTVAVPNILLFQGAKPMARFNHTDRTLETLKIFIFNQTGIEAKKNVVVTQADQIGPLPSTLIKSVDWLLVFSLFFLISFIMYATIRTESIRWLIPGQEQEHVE

TMX5_(C177A), V5-tagged = target: T5, TMX5_(C177A), V5-tagged (UniProt Q96J42); experiment: as above
T5 sequence: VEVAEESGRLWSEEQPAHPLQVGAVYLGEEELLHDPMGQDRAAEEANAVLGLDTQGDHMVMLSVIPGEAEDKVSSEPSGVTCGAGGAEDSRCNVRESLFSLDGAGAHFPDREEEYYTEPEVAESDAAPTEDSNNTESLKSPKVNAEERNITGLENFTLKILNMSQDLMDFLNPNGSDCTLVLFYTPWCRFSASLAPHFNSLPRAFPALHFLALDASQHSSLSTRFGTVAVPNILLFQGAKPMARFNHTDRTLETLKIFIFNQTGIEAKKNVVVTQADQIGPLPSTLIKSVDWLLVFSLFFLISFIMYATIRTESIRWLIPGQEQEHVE

TMX5_(C210A), V5-tagged = target: T6, TMX5_(C210A), V5-tagged (UniProt Q96J42); experiment: as above
T6 sequence: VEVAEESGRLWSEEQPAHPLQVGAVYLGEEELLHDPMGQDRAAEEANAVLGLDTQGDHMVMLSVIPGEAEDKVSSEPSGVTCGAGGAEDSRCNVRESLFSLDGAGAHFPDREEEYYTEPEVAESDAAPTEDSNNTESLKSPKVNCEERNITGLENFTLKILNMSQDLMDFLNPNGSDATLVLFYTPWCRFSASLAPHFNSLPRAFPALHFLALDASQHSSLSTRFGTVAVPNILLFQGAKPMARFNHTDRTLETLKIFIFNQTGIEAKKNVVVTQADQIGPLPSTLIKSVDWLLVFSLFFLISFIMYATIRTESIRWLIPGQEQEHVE

TMX5_(C220A), V5-tagged [4] = target: T2, TMX5_(C220A), V5-tagged; experiment: as above
[5] = target: T1, TMX5/TXNDC15, V5-tagged (TMX5-V5 WT); experiment: non-reducing SDS-PAGE and Western blot of mixed disulfides; post-nuclear fractions of HEK293 cells co-transfected with V5-tagged TMX5 or TMX5 C220A and HA-tagged ERp44 or ERp44 C29S; no immunoprecipitation; anti-V5 blot in non-reducing and reducing conditions; TMX5-ss-ERp44 band
TMX5_(C220A), V5-tagged [6] = target: T2, TMX5_(C220A), V5-tagged; experiment: as above

Measured: binding

B1: endogenous ERp44 (protein, UniProt Q9BS26 30-406)
chain: EITSLDTENIDEILNNADVALVNFYADWCRFSQMLHPIFEEASDVIKEEFPNENQVVFARVDCDQHSDIAQRYRISKYPTLKLFRNGMMMKREYRGQRSVKALADYIRQQKSDPIQEIRDLAEITTLDRSKRNIIGYFEQKDSDNYRVFERVANILHDDCAFLSAFGDVSKPERYSGDNIIYKPPGHSAPDMVYLGAMTNFDVTYNWIQDKCVPLVREITFENGEELTEEGLPFLILFHMKEDTESLEIFQNEVARQLISEKGTINFLHADCDKFRHPLLHIQKTPADCPVIAIDSFRHMYVFGDFKDVLIPGKLKQFVFDLHSGKLHREFHHGPDPTDTAPGEQAQDVASSPPESSFQKLAPSEYRYTLLRDRDEL
binds: [1] | TMX5_(C220A), V5-tagged [2]

B2: HA-tagged ERp44 (ERp44wt) (protein, UniProt Q9BS26 30-406)
chain: EITSLDTENIDEILNNADVALVNFYADWCRFSQMLHPIFEEASDVIKEEFPNENQVVFARVDCDQHSDIAQRYRISKYPTLKLFRNGMMMKREYRGQRSVKALADYIRQQKSDPIQEIRDLAEITTLDRSKRNIIGYFEQKDSDNYRVFERVANILHDDCAFLSAFGDVSKPERYSGDNIIYKPPGHSAPDMVYLGAMTNFDVTYNWIQDKCVPLVREITFENGEELTEEGLPFLILFHMKEDTESLEIFQNEVARQLISEKGTINFLHADCDKFRHPLLHIQKTPADCPVIAIDSFRHMYVFGDFKDVLIPGKLKQFVFDLHSGKLHREFHHGPDPTDTAPGEQAQDVASSPPESSFQKLAPSEYRYTLLRDRDEL
not listed: [1] | TMX5_(C220A), V5-tagged [2]
binds: all other assays above
